The values below come from article PMC8350409.

Chains of the proteins cited; added tags and fusions are not shown. Lines headed by an entry give the natural chain unless they say otherwise; changes in a name come on top. A line that says so, or that is headed by a name, gives the form on record, which may keep a tag or linker. Residues count along the entry.
UniProt Q9UJ55: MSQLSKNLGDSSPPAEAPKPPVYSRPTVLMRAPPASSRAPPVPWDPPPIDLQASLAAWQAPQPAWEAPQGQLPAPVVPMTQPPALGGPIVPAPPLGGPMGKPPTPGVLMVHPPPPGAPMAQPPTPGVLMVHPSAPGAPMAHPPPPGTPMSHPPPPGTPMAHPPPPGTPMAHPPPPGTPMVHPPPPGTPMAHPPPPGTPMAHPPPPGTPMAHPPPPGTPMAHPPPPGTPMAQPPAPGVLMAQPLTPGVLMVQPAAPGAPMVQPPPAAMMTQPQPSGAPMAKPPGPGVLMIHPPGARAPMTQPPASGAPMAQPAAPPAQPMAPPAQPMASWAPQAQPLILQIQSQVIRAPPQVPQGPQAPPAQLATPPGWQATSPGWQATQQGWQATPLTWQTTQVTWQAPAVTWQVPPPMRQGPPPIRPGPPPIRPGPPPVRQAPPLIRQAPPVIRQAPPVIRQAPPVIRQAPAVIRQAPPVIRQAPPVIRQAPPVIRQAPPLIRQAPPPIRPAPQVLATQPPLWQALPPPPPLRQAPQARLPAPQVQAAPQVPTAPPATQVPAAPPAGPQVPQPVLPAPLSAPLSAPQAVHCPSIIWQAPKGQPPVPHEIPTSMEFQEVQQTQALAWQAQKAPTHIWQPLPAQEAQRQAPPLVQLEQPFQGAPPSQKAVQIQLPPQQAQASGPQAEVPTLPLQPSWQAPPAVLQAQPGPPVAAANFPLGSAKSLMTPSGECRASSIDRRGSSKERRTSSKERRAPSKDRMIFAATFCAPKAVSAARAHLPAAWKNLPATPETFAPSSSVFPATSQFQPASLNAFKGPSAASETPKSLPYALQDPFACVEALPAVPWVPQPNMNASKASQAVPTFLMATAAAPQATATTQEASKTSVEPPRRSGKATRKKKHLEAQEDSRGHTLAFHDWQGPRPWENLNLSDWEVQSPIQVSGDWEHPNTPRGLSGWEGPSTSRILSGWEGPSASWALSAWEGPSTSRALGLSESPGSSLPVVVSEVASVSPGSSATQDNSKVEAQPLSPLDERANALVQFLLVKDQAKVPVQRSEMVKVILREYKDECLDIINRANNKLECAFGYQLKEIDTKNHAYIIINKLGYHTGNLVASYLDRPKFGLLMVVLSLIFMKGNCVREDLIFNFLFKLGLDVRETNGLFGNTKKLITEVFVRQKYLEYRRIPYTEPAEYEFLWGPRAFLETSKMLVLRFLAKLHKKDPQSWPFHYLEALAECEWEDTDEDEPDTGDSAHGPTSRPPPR
FLAG-BirA*-CtermMAGEL2: residues 605-1249 of Q9UJ55
FLAG-BirA*-CtermMAGEL2p.R1187C (Q9UJ55, form named): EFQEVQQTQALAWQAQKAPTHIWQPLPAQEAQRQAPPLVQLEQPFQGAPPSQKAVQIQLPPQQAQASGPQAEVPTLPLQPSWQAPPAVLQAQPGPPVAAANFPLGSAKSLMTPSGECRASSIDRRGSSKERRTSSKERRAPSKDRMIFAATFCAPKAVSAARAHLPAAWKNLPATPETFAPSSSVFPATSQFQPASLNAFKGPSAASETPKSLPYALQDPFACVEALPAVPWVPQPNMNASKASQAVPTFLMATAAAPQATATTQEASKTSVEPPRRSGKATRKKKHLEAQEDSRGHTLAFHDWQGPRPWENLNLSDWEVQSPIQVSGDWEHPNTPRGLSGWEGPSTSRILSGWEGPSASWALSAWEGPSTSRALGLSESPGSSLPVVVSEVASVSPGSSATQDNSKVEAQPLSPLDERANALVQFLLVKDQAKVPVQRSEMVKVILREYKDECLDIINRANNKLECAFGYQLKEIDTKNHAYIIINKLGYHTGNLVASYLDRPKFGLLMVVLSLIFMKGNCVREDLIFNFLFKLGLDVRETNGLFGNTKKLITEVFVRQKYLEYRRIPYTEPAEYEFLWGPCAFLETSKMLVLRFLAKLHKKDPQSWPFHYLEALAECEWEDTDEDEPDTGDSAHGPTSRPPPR
FLAG-BirA*-CtermMAGEL2p.LL1031AA (Q9UJ55, form named): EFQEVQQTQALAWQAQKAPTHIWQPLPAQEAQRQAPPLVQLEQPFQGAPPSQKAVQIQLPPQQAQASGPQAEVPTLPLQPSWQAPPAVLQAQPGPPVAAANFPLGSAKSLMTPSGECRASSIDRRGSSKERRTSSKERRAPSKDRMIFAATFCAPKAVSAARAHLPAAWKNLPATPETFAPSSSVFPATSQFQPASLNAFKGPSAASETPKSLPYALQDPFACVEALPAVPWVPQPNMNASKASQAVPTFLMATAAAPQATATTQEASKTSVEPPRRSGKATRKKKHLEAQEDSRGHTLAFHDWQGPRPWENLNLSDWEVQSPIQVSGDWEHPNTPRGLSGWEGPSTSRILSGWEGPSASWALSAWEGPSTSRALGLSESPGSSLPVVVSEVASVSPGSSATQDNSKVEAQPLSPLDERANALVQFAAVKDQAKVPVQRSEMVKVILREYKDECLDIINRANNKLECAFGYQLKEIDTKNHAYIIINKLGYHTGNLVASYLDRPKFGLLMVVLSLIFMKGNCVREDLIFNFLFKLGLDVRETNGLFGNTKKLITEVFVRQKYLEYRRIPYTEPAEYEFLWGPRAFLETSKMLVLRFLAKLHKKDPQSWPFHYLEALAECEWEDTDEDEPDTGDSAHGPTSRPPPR
UniProt O00571: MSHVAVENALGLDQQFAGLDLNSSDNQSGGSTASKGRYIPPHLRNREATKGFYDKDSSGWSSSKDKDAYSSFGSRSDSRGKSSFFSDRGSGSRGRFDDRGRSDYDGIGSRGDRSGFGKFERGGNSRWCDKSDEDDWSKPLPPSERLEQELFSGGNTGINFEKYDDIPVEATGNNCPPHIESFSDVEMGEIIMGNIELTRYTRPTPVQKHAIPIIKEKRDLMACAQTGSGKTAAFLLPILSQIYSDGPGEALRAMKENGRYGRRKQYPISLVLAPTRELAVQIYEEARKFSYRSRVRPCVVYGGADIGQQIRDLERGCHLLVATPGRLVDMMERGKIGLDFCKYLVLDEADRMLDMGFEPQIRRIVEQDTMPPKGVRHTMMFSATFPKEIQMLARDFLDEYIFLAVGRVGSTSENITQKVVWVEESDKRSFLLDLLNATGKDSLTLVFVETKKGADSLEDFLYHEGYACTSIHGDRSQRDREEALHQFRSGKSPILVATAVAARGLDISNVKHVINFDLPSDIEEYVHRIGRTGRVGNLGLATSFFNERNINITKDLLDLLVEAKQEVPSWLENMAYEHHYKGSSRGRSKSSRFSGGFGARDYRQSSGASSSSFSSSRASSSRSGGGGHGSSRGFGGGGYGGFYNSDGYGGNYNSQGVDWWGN
UniProt P67809: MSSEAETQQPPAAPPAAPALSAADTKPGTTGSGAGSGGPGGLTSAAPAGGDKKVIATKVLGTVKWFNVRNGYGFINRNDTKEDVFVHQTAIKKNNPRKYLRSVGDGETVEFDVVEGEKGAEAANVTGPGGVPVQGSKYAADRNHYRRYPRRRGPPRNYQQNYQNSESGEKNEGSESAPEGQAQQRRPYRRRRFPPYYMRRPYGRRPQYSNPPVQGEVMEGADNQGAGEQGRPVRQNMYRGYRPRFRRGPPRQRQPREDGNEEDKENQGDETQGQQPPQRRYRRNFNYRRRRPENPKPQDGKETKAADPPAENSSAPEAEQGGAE
UniProt Q9BYJ9: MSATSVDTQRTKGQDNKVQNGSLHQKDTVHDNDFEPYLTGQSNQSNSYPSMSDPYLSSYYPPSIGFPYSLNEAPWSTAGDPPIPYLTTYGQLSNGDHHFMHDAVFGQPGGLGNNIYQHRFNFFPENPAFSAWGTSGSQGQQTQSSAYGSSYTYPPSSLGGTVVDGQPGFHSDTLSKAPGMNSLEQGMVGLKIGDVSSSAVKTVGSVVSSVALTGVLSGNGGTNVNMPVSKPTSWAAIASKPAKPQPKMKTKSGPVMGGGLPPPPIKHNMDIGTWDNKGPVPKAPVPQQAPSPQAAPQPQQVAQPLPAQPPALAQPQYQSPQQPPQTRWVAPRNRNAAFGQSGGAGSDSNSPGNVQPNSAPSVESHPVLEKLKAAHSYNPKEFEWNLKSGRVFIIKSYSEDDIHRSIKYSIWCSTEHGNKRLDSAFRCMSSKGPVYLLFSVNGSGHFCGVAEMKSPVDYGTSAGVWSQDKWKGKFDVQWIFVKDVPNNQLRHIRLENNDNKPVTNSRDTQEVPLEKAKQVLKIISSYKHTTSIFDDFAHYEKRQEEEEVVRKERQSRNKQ
UniProt Q9Y266: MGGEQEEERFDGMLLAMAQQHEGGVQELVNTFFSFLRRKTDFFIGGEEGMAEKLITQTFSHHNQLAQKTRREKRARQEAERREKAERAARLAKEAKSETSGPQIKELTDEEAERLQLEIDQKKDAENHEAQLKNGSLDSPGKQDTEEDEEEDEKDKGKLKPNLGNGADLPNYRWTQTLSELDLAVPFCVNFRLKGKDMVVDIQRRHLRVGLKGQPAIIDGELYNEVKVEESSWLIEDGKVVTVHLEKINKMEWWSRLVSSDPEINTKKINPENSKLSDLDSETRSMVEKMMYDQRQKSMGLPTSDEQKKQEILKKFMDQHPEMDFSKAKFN
UniProt P48634: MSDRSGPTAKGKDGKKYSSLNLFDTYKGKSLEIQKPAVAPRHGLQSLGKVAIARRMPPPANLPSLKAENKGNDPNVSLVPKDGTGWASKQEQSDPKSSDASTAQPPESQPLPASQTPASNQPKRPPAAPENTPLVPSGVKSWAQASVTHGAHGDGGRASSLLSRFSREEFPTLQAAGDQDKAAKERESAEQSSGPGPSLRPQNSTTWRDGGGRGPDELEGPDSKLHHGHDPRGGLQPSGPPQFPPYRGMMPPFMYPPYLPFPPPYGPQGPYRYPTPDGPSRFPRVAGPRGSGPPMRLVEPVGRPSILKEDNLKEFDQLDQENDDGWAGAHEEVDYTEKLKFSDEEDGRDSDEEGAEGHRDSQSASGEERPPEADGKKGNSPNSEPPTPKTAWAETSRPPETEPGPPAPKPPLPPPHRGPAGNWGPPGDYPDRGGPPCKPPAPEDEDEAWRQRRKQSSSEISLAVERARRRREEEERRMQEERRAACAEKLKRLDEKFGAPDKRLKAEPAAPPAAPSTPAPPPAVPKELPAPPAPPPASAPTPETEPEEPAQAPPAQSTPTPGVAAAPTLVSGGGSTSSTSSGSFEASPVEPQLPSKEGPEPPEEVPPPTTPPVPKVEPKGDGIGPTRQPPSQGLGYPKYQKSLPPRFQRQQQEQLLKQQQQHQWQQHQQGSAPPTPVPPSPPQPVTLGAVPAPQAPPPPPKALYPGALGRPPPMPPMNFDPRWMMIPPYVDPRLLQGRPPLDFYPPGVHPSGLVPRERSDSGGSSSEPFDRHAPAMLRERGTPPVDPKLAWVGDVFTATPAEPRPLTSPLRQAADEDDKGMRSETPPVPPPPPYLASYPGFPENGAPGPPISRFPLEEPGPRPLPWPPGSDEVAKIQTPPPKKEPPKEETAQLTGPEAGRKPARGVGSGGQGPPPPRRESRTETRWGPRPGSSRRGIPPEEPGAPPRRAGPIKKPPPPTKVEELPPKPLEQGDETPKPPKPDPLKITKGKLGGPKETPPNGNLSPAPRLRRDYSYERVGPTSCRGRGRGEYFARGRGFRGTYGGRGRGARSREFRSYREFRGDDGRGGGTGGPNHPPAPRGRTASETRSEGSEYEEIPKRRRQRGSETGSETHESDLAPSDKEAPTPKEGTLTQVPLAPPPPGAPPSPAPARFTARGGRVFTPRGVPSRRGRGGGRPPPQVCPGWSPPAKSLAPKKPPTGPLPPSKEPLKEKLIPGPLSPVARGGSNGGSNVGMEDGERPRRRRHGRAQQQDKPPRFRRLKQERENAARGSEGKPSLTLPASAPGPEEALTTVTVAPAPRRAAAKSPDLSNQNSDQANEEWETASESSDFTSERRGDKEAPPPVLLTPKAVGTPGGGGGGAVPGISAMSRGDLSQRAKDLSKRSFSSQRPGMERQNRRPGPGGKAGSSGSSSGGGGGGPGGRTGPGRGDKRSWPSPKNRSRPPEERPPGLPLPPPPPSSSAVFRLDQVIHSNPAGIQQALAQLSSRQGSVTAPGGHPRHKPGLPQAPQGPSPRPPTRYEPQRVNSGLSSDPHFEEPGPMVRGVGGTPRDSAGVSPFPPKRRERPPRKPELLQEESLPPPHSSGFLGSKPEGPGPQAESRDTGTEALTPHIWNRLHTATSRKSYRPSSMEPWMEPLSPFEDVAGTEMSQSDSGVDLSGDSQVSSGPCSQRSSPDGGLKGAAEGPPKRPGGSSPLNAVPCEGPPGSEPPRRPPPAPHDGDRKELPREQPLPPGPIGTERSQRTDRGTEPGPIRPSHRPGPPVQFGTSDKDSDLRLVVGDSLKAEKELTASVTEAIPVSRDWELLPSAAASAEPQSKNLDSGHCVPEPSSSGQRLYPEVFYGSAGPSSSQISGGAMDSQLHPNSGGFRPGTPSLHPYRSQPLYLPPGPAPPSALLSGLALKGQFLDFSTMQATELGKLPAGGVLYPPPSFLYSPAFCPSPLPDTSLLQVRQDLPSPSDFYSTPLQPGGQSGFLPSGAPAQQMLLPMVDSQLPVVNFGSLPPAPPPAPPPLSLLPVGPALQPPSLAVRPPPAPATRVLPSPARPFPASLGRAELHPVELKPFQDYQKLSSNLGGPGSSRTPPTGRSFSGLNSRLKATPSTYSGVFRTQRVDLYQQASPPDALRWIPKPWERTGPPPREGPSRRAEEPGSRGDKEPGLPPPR

Results are given in words; binding and its absence hold for the method and conditions named. Binding seen in cells or lysates may run through a third protein. A yes stands for co-enrichment or nearness to the bait. Other partners may have been found. For some assays here: No binding means not detected with the bait.

Common to all, as to test: proximity labelling; BioID: FLAG-BirA*-MAGEL2 bait (full length, Cterm or mutant Cterm) in stable HEK293 Flp-In T-REx cells, overnight 1 ug/ml tetracycline and 50 uM biotin; lysis in 50 mM Tris HCl, 500 mM NaCl, 0.2% SDS, 2% Triton-X, pH 8.0; biotinylated proteins captured on streptavidin sepharose; LC-MS/MS; CRAPome filtering
Assay [1] addresses FLAG-BirA*-MAGEL2 (full-length MAGEL2) (human) (UniProt Q9UJ55).
Assay [2] addresses FLAG-BirA*-CtermMAGEL2 (human) (UniProt Q9UJ55).
The target of assay [3] is FLAG-BirA*-CtermMAGEL2p.R1187C (human) (UniProt Q9UJ55).
Assay [4] addresses FLAG-BirA*-CtermMAGEL2p.LL1031AA (human) (UniProt Q9UJ55).

Consider ANKHD1 (from UniProt Q8IWZ3 1-2542), for which, in assay [1], the binding entry is recorded as “binds”.

ANKRD17 (from UniProt O75179 1-2603): the binding entry in assay [1] was “binds”.

On to “CLINT1 (Clathrin interactor 1) (from UniProt Q14677 1-625)”, for which the binding entry in assay [1] is reported as “binds”.

As to “CRK-like protein (CRKL) (from UniProt P46109 1-303)”, the binding entry in assay [2] and in assay [3] was “binds” in each case.

Take DDX3X (from UniProt O00571 1-662): the binding entry in assay [1], in assay [2] and in assay [3] was “binds” each time.

As to “ENO1 (from UniProt P06733 1-434) (enzyme)”, the binding entry in assay [2] is on record as “binds”.

With FUBP3 (from UniProt Q96I24 1-572), the binding entry in assay [1] is “binds”.

Regarding HNRNPK (from UniProt P61978 1-463), the binding result in assay [1] is recorded as “binds”.

Consider “PKM (from UniProt P14618 1-531) (enzyme)”, for which, in assay [2], the binding result is recorded as “binds”.

For the molecule PRRC2C (from UniProt Q9Y520 1-2896), the binding entry in assay [1] is “binds”.

Regarding “PUM1 (Pumilio homolog 1) (from UniProt Q14671 1-1186)”, the binding result in assay [1] is “binds”.

Turning to “STE20-like kinase (SLK) (from UniProt Q9H2G2 1-1235) (enzyme)”, in assay [2], the binding result is reported as “binds”.

As to “TNRC6A (trinucleotide repeat containing adaptor 6A) (from UniProt Q8NDV7 1-1962)”, the figures for the binding result in assay [1] and in assay [2] were “binds” and “no binding”, respectively.

For “TNRC6B (trinucleotide repeat containing adaptor 6B) (from UniProt Q9UPQ9 1-1833)”, the binding result in assay [1] was “binds”; in assay [2], “no binding”.

For “Ubiquitin-associated protein 2-like (UBAP2L) (from UniProt Q14157 1-1087)”, in assay [1], the binding entry is on record as “binds”.

Consider YBX1 (from UniProt P67809 1-324), for which the figures for the binding entry in assay [2], in assay [3] and in assay [4] were “binds”, “no binding” and “no binding”, respectively.

With “YTHDF1 (YTH N6-methyladenosine RNA-binding protein 1) (from UniProt Q9BYJ9 1-559)”, the binding result in assay [1] is “binds”; in assay [2] it was “no binding”.

Take “YTHDF3 (YTH N6-methyladenosine RNA-binding protein 3) (from UniProt Q7Z739 1-585)”: the values for the binding result in assay [1] and in assay [2] were “binds” and “no binding”, respectively.

Turning to ZFR (from UniProt Q96KR1 1-1074), in assay [1], the binding result is on record as “binds”.

On to “adaptor protein crk (CRK) (from UniProt P46108 1-304)”, for which the binding entry in assay [3] is recorded as “binds”.

As for “chaperone protein (NUDC) (from UniProt Q9Y266 1-331)”, the binding result in assay [1] is listed as “binds”.

In the case of “coronin 1B (CORO1B) (from UniProt Q9BR76 1-489)”, the binding entry in assay [2] is “binds”.

Turning to “eukaryotic initiation factor eIF4A1 (from UniProt P60842 1-406)”, the binding result in assay [2] and in assay [3] was “binds” throughout.

Turning to “eukaryotic initiation factor eIF4G1 (from UniProt Q04637 1-1599)”, the binding result in assay [2] and in assay [3] was “binds” each time.

Regarding “exocyst complex component 4 (EXOC4) (from UniProt Q96A65 1-974)”, the binding entry in assay [2] was “binds”.

As for “glyceraldehyde-3-phosphate dehydrogenase (GAPDH) (from UniProt P04406 1-335) (enzyme)”, the binding result in assay [1] and in assay [2] was “binds” throughout.

Take “polyadenylate-binding protein 1 (PABPC1) (from UniProt P11940 1-636)”: the binding entry in assay [1] is “binds”.

As for “proline-rich coiled-coil 2 A (PRRC2A) (from UniProt P48634 1-2157)”, the binding result in assay [1] is “binds”.

For the molecule “talin-1 (TLN1) (from UniProt Q9Y490 1-2541)”, in assay [2], the binding entry is “binds”.

B1: SEC24B (protein, UniProt O95487 1-1268)
chain: MSAPAGSSHPAASARIPPKFGGAAVSGAAAPAGPGAGPAPHQQNGPAQNQMQVPSGYGLHHQNYIAPSGHYSQGPGKMTSLPLDTQCGDYYSALYTVPTQNVTPNTVNQQPGAQQLYSRGPPAPHIVGSTLGSFQGAASSASHLHTSASQPYSSFVNHYNSPAMYSASSSVASQGFPSTCGHYAMSTVSNAAYPSVSYPSLPAGDTYGQMFTSQNAPTVRPVKDNSFSGQNTAISHPSPLPPLPSQQHHQQQSLSGYSTLTWSSPGLPSTQDNLIRNHTGSLAVANNNPTITVADSLSCPVMQNVQPPKSSPVVSTVLSGSSGSSSTRTPPTANHPVEPVTSVTQPSELLQQKGVQYGEYVNNQASSAPTPLSSTSDDEEEEEEDEEAGVDSSSTTSSASPMPNSYDALEGGSYPDMLSSSASSPAPDPAPEPDPASAPAPASAPAPVVPQPSKMAKPFGYGYPTLQPGYQNATAPLISGVQPSNPVYSGFQQYPQQYPGVNQLSSSIGGLSLQSSPQPESLRPVNLTQERNILPMTPVWAPVPNLNADLKKLNCSPDSFRCTLTNIPQTQALLNKAKLPLGLLLHPFRDLTQLPVITSNTIVRCRSCRTYINPFVSFIDQRRWKCNLCYRVNDVPEEFMYNPLTRSYGEPHKRPEVQNSTVEFIASSDYMLRPPQPAVYLFVLDVSHNAVEAGYLTILCQSLLENLDKLPGDSRTRIGFMTFDSTIHFYNLQEGLSQPQMLIVSDIDDVFLPTPDSLLVNLYESKELIKDLLNALPNMFTNTRETHSALGPALQAAFKLMSPTGGRVSVFQTQLPSLGAGLLQSREDPNQRSSTKVVQHLGPATDFYKKLALDCSGQQTAVDLFLLSSQYSDLASLACMSKYSAGCIYYYPSFHYTHNPSQAEKLQKDLKRYLTRKIGFEAVMRIRCTKGLSMHTFHGNFFVRSTDLLSLANINPDAGFAVQLSIEESLTDTSLVCFQTALLYTSSKGERRIRVHTLCLPVVSSLADVYAGVDVQAAICLLANMAVDRSVSSSLSDARDALVNAVVDSLSAYGSTVSNLQHSALMAPSSLKLFPLYVLALLKQKAFRTGTSTRLDDRVYAMCQIKSQPLVHLMKMIHPNLYRIDRLTDEGAVHVNDRIVPQPPLQKLSAEKLTREGAFLMDCGSVFYIWVGKGCDNNFIEDVLGYTNFASIPQKMTHLPELDTLSSERARSFITWLRDSRPLSPILHIVKDESPAKAEFFQHLIEDRTEAAFSYYEFLLHVQQQICK
Take B1: in assay [1], the binding result is listed as “binds”.

B2: NSFL1 cofactor p47 (NSFL1C) (protein, UniProt Q9UNZ2 1-370)
chain: MAAERQEALREFVAVTGAEEDRARFFLESAGWDLQIALASFYEDGGDEDIVTISQATPSSVSRGTAPSDNRVTSFRDLIHDQDEDEEEEEGQRFYAGGSERSGQQIVGPPRKKSPNELVDDLFKGAKEHGAVAVERVTKSPGETSKPRPFAGGGYRLGAAPEEESAYVAGEKRQHSSQDVHVVLKLWKSGFSLDNGELRSYQDPSNAQFLESIRRGEVPAELRRLAHGGQVNLDMEDHRDEDFVKPKGAFKAFTGEGQKLGSTAPQVLSTSSPAQQAENEAKASSSILIDESEPTTNIQIRLADGGRLVQKFNHSHRISDIRLFIVDARPAMAATSFILMTTFPNKELADESQTLKEANLLNAVIVQRLT
Regarding B2, the binding result in assay [2] was “binds”.

B3: KHSRP (FUBP2) (protein, UniProt Q92945 1-711)
chain: MSDYSTGGPPPGPPPPAGGGGGAGGAGGGPPPGPPGAGDRGGGGPGGGGPGGGSAGGPSQPPGGGGPGIRKDAFADAVQRARQIAAKIGGDAATTVNNSTPDFGFGGQKRQLEDGDQPESKKLASQGDSISSQLGPIHPPPRTSMTEEYRVPDGMVGLIIGRGGEQINKIQQDSGCKVQISPDSGGLPERSVSLTGAPESVQKAKMMLDDIVSRGRGGPPGQFHDNANGGQNGTVQEIMIPAGKAGLVIGKGGETIKQLQERAGVKMILIQDGSQNTNVDKPLRIIGDPYKVQQACEMVMDILRERDQGGFGDRNEYGSRIGGGIDVPVPRHSVGVVIGRSGEMIKKIQNDAGVRIQFKQDDGTGPEKIAHIMGPPDRCEHAARIINDLLQSLRSGPPGPPGGPGMPPGGRGRGRGQGNWGPPGGEMTFSIPTHKCGLVIGRGGENVKAINQQTGAFVEISRQLPPNGDPNFKLFIIRGSPQQIDHAKQLIEEKIEGPLCPVGPGPGGPGPAGPMGPFNPGPFNQGPPGAPPHAGGPPPHQYPPQGWGNTYPQWQPPAPHDPSKAAAAAADPNAAWAAYYSHYYQQPPGPVPGPAPAPAAPPAQGEPPQPPPTGQSDYTKAWEEYYKKIGQQPQQPGAPPQQDYTKAWEEYYKKQAQVATGGGPGAPPGSQPDYSAAWAEYYRQQAAYYGQTPGPGGPQPPPTQQGQQQAQ
Regarding B3, in assay [1], the binding result is on record as “binds”.
